Measured values taken from EP4644420A1 (Unicet Biotech. LLC, dated 2025).
These are yes or no findings as the source states them, for the method shown. Some binding calls cover weakened binding; strength is not graded here.

Biological target: T1, B7-H3 on human tumor cells (human) (UniProt Q5ZPR3)
T1 sequence (looked up): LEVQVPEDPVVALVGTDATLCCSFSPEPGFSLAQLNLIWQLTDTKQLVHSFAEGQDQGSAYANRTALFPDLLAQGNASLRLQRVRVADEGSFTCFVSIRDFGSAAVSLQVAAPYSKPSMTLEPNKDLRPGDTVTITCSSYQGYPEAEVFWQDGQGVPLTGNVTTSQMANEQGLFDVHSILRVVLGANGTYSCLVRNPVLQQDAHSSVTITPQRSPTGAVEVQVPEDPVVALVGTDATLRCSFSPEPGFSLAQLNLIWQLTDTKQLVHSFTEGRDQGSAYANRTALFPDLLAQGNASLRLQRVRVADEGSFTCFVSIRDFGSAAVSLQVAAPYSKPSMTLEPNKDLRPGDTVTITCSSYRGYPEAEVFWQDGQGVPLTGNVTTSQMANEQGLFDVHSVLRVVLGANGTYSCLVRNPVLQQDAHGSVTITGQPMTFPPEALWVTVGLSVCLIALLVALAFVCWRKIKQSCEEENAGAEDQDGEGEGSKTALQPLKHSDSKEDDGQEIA
Assay: flow cytometry on U87 cells, 1 µg antibody per 1e6 cells; no signal on B7-H3 knockout U87

B1: humanized 2Y31 antibody (antibody, V domains shown)
VH: EVQLVESGGGLVKPGGSLKLSCAASGFAFSRYDMSWVRQSPEKRLEWVATISDDGRHTYDRDSVKGRFTISRDNAKNTLYLQMSSLRSEDTALYYCVRHRAITTARFDYWGQGTTVTVSS
VL: DIVMTQSPSSLSVSLGDTVSITCKASQDIYSNIGWLQQLPGQSFKGLIYHGTNLEDGVPSRFSGSGSGTDYSLTISGLESEDFADYYCLQYVQFPYTFGGGTKLEIKA
How did the binding turn out when B1 was run?
The binding was “binds”.
